{"source": "patent US9186318B2", "about": "“Quinolyl-containing hydroxamic acid compound and preparation method thereof, and pharmaceutical composition containing this compound and use thereof” (Beijing Konruns Pharmaceutical Co., Ltd, priority 2011, dated 2015)", "test_system": "GTL-16 gastric cancer cells", "assay": "Anti-tumor experiment in xenograft nude mice", "format": "in vivo, BALB/c-nu/nu mice", "settings": "GTL-16 xenograft nude mice; 75 mg/kg oral once a day; 14 days", "from_the_text": "In this example, N1′-[3-fluoro-4-[[7-[[1-[2-(hydroxyamino)-2-oxoethyl]-4-piperidyl]methoxy]-6-methoxy-4-quinolyl]oxy]phenyl]-N1-(4-fluorophenyl)cyclopropane-1,1-dicarboxamide prepared in Example 1 was used to conduct anti-tumor experiment in xenograft nude mice animal models of human gastric cancer. The method and results of the experiment were as follows.\n4 to 5-week-old SPF level female BALB/c-nu/nu mice with body weight of 12 g to 16 g were purchased from Beijing Vital River Laboratory Animal Technology Co., Ltd., with the production license number: SCXK (Beijing) 2006. GTL-16 gastric cancer cells were purchased from Shanghai Institutes for Biological Sciences Cell Resource Center. RPM 1-1640 cell culture media, fetal bovine serum (FBS) and trypsin digestion solution were purchased from Gibco. Various antibiotics were purchased from Sigma.\nGTL-16 gastric cancer cells were firstly cultured: GTL-16 cell lines were inoculated in RPM 1-1640 culture medium contain 10% FBS, 100 U/ml penicillin, 100 U/ml streptomycin and cultured under the condition of 37° C., 5% CO2 and 100% humidity in a carbon dioxide incubator. The logarithmic growth phase reached upon 24 h, and the cells completely covered the bottom of the culture flask at approximately 48 h after inoculation. […] The tumor size of each animal was measured every 2 days. […]", "note": "At least one compound was matched to its structure with a doubt left.", "data": [{"smiles": "COc1cc2c(Oc3ccc(NC(=O)C4(C(=O)Nc5ccc(F)cc5)CC4)cc3F)ccnc2cc1OCCCC(=O)NO", "note": "[Example 9, N1′-[3-fluoro-4-[[7-[4-(hydroxyamino)-4-oxobutoxy]-6-methoxy-4-quinolyl]oxy]phenyl]-N1-(4-fluorophenyl)cyclopropane-1,1-dicarboxamide]", "values": [{"measurement": "tumor growth inhibition as compared to the vehicle control group (in words)", "result": "significant tumor growth inhibition"}]}]}
